The source of these data is article PMC13156308.

The chains behind the UniProt entries cited, without tags or fusion partners. Where a name states a change or a piece, a line headed by the entry shows the natural chain unless it says otherwise. A line that says so, or that is headed by a name, gives the form on record, which may keep a tag or linker.
UniProt P97310: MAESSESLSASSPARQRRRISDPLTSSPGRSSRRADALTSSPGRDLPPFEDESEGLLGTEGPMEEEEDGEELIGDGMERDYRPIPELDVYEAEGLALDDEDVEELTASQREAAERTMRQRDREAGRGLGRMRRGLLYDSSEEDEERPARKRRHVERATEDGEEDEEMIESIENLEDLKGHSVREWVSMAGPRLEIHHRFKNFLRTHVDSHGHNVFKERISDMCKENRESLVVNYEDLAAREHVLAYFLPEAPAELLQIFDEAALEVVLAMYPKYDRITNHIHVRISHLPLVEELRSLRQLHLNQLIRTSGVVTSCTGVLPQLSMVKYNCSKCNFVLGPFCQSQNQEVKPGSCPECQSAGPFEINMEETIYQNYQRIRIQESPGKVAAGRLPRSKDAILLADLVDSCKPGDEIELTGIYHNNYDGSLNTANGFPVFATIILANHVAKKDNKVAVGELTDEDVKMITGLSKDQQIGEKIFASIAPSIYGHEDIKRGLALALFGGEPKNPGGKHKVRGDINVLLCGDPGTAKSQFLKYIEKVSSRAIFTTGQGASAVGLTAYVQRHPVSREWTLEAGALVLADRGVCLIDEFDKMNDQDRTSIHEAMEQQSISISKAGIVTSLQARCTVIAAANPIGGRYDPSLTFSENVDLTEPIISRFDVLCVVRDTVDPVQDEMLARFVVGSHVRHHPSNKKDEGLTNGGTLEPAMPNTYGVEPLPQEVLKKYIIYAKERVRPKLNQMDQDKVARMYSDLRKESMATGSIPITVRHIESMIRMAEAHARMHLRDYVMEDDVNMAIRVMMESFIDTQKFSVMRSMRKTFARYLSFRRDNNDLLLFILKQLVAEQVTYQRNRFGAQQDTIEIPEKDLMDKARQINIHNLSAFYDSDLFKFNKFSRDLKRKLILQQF
MCM2-2A-TurboID-3xHA (mouse) (P97310, form named): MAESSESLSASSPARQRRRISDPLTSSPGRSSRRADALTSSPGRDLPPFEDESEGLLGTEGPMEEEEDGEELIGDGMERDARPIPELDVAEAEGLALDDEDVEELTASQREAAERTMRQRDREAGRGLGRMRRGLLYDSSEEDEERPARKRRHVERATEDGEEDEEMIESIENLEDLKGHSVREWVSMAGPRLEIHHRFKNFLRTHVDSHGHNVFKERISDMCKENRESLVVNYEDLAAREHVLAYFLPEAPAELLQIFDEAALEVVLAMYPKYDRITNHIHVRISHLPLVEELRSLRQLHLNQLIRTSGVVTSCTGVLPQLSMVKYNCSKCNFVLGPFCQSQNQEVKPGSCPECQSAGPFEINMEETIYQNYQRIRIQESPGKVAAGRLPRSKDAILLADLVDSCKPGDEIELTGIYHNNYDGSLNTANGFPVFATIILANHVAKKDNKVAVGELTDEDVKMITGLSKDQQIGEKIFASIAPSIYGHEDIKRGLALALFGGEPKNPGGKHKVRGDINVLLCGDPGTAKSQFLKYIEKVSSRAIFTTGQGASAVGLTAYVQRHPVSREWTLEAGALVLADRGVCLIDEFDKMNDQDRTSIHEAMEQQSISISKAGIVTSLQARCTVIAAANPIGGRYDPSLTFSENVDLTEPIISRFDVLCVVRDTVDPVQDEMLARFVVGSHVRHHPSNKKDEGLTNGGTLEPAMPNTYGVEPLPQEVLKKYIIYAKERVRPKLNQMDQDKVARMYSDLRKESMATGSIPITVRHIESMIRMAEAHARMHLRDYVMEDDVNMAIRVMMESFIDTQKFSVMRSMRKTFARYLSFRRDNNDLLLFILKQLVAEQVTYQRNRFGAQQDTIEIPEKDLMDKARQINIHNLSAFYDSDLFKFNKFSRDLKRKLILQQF

Experiment in all cases: proximity labelling; bait-TurboID stably expressed in S-phase-synchronised NIH3T3 cells, 500 uM biotin 1 h, RIPA lysis, streptavidin beads, LC-MS/MS, four replicates; enriched: bait/Control >2, P <0.05
Test [1] has as its target MCM2-2A-TurboID-3xHA (mouse) (mouse) (UniProt P97310).
Test [2] concerns the target MCM2-TurboID-3xHA (mouse) (mouse) (UniProt P97310).
A further test addresses T1, POLE3-TurboID (mouse) (UniProt Q9JKP7).
T1 sequence: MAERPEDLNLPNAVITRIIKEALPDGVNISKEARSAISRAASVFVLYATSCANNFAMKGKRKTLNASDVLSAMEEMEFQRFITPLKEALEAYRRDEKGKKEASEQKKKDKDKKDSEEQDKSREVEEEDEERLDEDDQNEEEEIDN

The next test addresses T2, POLE4-TurboID (mouse) (UniProt Q9CQ36).
T2 sequence: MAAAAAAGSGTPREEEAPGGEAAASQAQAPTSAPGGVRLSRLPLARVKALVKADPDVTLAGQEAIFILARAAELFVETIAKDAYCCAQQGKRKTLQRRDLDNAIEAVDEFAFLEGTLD

These are yes or no findings as the source states them, for the method shown. Binding seen in cells or lysates may run through a third protein. These calls come from enrichment with a bait or labelling near it, and not all partners need be listed.

B1: CHRAC1 (protein, UniProt Q9JKP8 1-129)
chain: MADAAVGKEKCGDQRLVSLPLSRIRVIMKSSPEVSSINQEALVLTAKATELFVQYLATCSYRHGSGKAKKALTYSDLASTAEDSETLQFLADILPKKILASKYLKMLKEKREEEEDNEDDGSDLGEALA
B1: the binding entry in test [1] and in test [2] was “binds” in each case.

B2: WD repeat and HMG-box DNA-binding protein 1 (WDHD1) (protein, UniProt P59328 1-1117)
chain: MPATQKPMRYGHTEGHTEVCFDDSGSYIVTCGSDGDVRMWEDLDDDDPKSVNVGEKAFSCALKNGKLVTAVSNNTVQVYTFPEGVPDGILTRFTTNANHVVFNGAGNKIAAGSSDFLVKVVDVMDNSQQQTFRGHDAPVLSLSFDPKDIFLASASCDGTVRVWNISDQTCAVSWPVLQKSNDVVNAKSICRLAWQPKAGKLLAVPVEKSVKLYRRETWSNPFDLSDSSISQTLNIVTWSPCGQYLAAGAINGLIVVWNVETKDCMERVKHEKGYAICGLAWHPTCSRICYTDVEGNLGVLENVCDLSGKVSSNKVSSRVEKDYNDLFDGDDTSSAGDFLNDNAVEIPSFSKGIINEDDDNDDIMLAADHDLGDDENSVDVTMLKADLSHKEEGDDDQARSIHNLPLIRPQRPFYDGPMPTPRQKPFQSSSTPLHLSHRFMVWNSVGIIRCYNDDQDSAIDVEFHDTSIHHATHLLNAFNYTMGTLSHEAILLACESADELASKLHCLHFSSWDSSKEWMVDMPQNEDIEAICLGLGWAAAATTALLLRLFTIGGVQKEVFCLPGPVVSMAGHGEQLCIVYHRGTGFDGDQCLGVQLLELGRKKNQVLHGDPLPLTRKSYLTWLGFSAEGTPCYVDSEGCVRMLNRGLGNTWTPVCNIREHCKGKSDHYWVVGIHENPQQLRCIPCKGSRFPPTLPRPAVAILSFKLPYCQTSTEKGQMEEQFWHSVLFHNYLDYLAKNGYDYEESIKNQAVKEQQELLMKMLALSCKLEREFRCVELADLMTQNAVHLAIKYASRSRKLILAQKLSELAAEKAAELAETQSEEEKEEDFREKLNAGYSHTTTEWSRPRVRSQVEDAEDREDTVSEEKPESHNHGQNLFQSANSSDTPALKSGAVFSSSQGWVNPFKVVVSSKEPAVSANSTRSANILDSMNKSSRKSTSLNRMENNEKSPVIKPLTPKPRSKQASAASYFQKRTPQADKTEEVKENPKSSSSDAPAVCLQNSENQRPKTGFQMWLEENRSQILSDNPDISDETDIIKEGMIRFRVLSAEERKAWTNKAKGETASDGAEAKKRKRVVSEICETENQEETVKENLDLSKKQKALNLPANQKLSAFAFKQ
Turning to B2, the binding result in test [1] and in test [2] was “binds” throughout.

B3: DNAJC9 (protein, UniProt Q91WN1 1-259)
chain: MGLLELCEQVFGTADLYQVLGVRREASDGEVRRGYHKVSLQVHPDRVEEDQKEDATRRFQILGRVYAVLSDKEQKAVYDEQGTVDEDSAGLNQDRDWDAYWRLLFKKISLEDIQAFEKTYKGSEEELNDIKQAYLDFKGDMDQIMESVLCVQYTDEPRIRNIIQKAIESKEIPAYSAFVKESKQKMNARKRRAQEEAKEAELSRKELGLEEGVDNLKALIQSRQKDRQKEMDSFLAQMEAKYCKPSKGGKRTALKKEKK
Consider B3, for which the binding result (in test [1]; in test [2]; in the test with POLE3-TurboID (mouse); with POLE4-TurboID (mouse)) was “binds” throughout.
